Test results as given in the supplement of paper PMC8728848.
Some of the results follow.

Key:
Assay in all cases: glycan array binding signal (z-score within array); higher = stronger binding
Settings in all cases: glycan notation: IUPAC condensed, linker removed
[1] = molecular target: Fuc(a1-2)Gal
Outline: (§1)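 The binding signal is a Z-score computed within each array and averaged over linkers. Arrays of the same protein sequence at different concentrations or buffers were also averaged together. Data originate from 3228 arrays in the Consortium for Functional Glycomics database, kept only where the protein sequence was available.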

[2] = molecular target: Fuc(a1-2)Gal(b1-3)GalNAc
Outline: as §1

[3] = molecular target: Fuc(a1-2)Gal(b1-3)GalNAc(a1-3)[Fuc(a1-2)]Gal(b1-4)Glc
Outline: as §1

[4] = molecular target: Fuc(a1-2)Gal(b1-3)GalNAc(a1-3)[Fuc(a1-2)]Gal(b1-4)GlcNAc
Outline: as §1

[5] = molecular target: Fuc(a1-2)Gal(b1-3)GalNAc(b1-3)Gal
Outline: as §1

[6] = molecular target: Fuc(a1-2)Gal(b1-3)GalNAc(b1-3)Gal(a1-4)Gal(b1-4)Glc
Outline: as §1

[7] = molecular target: Fuc(a1-2)Gal(b1-3)GalNAc(b1-4)[Neu5Ac(a2-3)]Gal(b1-4)Glc
Outline: as §1

[8] = molecular target: Fuc(a1-2)Gal(b1-3)GlcNAc
Outline: as §1

[9] = molecular target: Fuc(a1-2)Gal(b1-3)GlcNAc(b1-2)Man(a1-3)[Fuc(a1-2)Gal(b1-3)GlcNAc(b1-2)Man(a1-6)]Man(b1-4)GlcNAc(b1-4)GlcNAc
Outline: as §1

[10] = molecular target: Fuc(a1-2)Gal(b1-3)GlcNAc(b1-2)Man(a1-3)[Fuc(a1-2)Gal(b1-3)GlcNAc(b1-2)Man(a1-6)]Man(b1-4)GlcNAc(b1-4)[Fuc(a1-6)]GlcNAc
Outline: as §1

[11] = molecular target: Fuc(a1-2)Gal(b1-3)GlcNAc(b1-3)Gal(b1-4)Glc
Outline: as §1

[12] = molecular target: Fuc(a1-2)Gal(b1-3)GlcNAc(b1-3)GalNAc
Outline: as §1

[13] = molecular target: Fuc(a1-2)Gal(b1-3)GlcNAc(b1-3)[Fuc(a1-2)Gal(b1-3)GlcNAc(b1-6)]GalNAc
Outline: as §1

[14] = molecular target: Fuc(a1-2)Gal(b1-3)GlcNAc(b1-3)[Gal(b1-4)GlcNAc(b1-6)]Gal(b1-4)Glc
Outline: as §1

[15] = molecular target: Fuc(a1-2)Gal(b1-3)GlcNAc(b1-3)[Neu5Ac(a2-6)Gal(b1-4)GlcNAc(b1-6)]Gal(b1-4)Glc
Outline: as §1

[16] = molecular target: Fuc(a1-2)Gal(b1-3)GlcNAc6S
Outline: as §1

[17] = molecular target: Fuc(a1-2)Gal(b1-3)[Fuc(a1-4)]GlcNAc
Outline: as §1

[18] = molecular target: Fuc(a1-2)Gal(b1-3)[Fuc(a1-4)]GlcNAc(b1-2)Man(a1-3)[Fuc(a1-2)Gal(b1-3)[Fuc(a1-4)]GlcNAc(b1-2)Man(a1-3)]Man(b1-4)GlcNAc(b1-4)GlcNAc
Outline: as §1

[19] = molecular target: Fuc(a1-2)Gal(b1-3)[Fuc(a1-4)]GlcNAc(b1-2)Man(a1-3)[Fuc(a1-2)Gal(b1-3)[Fuc(a1-4)]GlcNAc(b1-2)Man(a1-6)]Man(b1-4)GlcNAc(b1-4)[Fuc(a1-6)]GlcNAc(b1-4)[Fuc(a1-6)]GlcNAc
Outline: as §1

[20] = molecular target: Fuc(a1-2)Gal(b1-3)[Fuc(a1-4)]GlcNAc(b1-3)[Fuc(a1-3)[Gal(b1-4)]GlcNAc(b1-6)]Gal(b1-4)Glc
Outline: as §1

[21] = molecular target: Fuc(a1-2)Gal(b1-3)[Fuc(a1-4)]GlcNAc(b1-3)[Gal(b1-4)GlcNAc(b1-6)]Gal(b1-4)Glc
Outline: as §1

[22] = molecular target: Fuc(a1-2)Gal(b1-4)Fuc(a1-3)]GlcNAc(b1-2)Man(a1-3)[Fuc(a1-2)Gal(b1-4)[Fuc(a1-3)]GlcNAc(b1-2)Man(a1-6)]Man(b1-4)GlcNAc(b1-4)GlcNAc
Outline: as §1

[23] = molecular target: Fuc(a1-2)Gal(b1-4)Glc
Outline: as §1

[24] = molecular target: Fuc(a1-2)Gal(b1-4)Glc6S
Outline: as §1

[25] = molecular target: Fuc(a1-2)Gal(b1-4)GlcNAc
Outline: as §1

[26] = molecular target: Fuc(a1-2)Gal(b1-4)GlcNAc(b1-2)Man
Outline: as §1

[27] = molecular target: Fuc(a1-2)Gal(b1-4)GlcNAc(b1-2)Man(a1-3)[Fuc(a1-2)Gal(b1-4)GlcNAc(b1-2)Man(a1-6)]Man(b1-4)GlcNAc(b1-4)GlcNAc
Outline: as §1

[28] = molecular target: Fuc(a1-2)Gal(b1-4)GlcNAc(b1-2)Man(a1-3)[Fuc(a1-2)Gal(b1-4)GlcNAc(b1-2)Man(a1-6)]Man(b1-4)GlcNAc(b1-4)[Fuc(a1-6)]GlcNAc
Outline: as §1

[29] = molecular target: Fuc(a1-2)Gal(b1-4)GlcNAc(b1-2)[Fuc(a1-2)Gal(b1-4)GlcNAc(b1-4)]Man(a1-3)[Fuc(a1-2)Gal(b1-4)GlcNAc(b1-2)Man(a1-6)]Man(b1-4)GlcNAc(b1-4)GlcNAc
Outline: as §1

[30] = molecular target: Fuc(a1-2)Gal(b1-4)GlcNAc(b1-3)Gal(b1-4)GlcNAc
Outline: as §1

B1: HA-00510 (Pseudomonas aeruginosa), Q02V39_PSEAB (protein)
chain: GVPIVNIATPNGAGLSNNHFRDYNVGANGLILNNATGKTQGTQLGGIILGNPNLKGQAAQVILNQVTGGNRSTLAGYTEVAGQSARVIVANPHGITCQGCGFINTPRATLTTGKPIMDGQRLERFQVDGGDIVVEGAELNVGNLEQFDLITRSAKLNAKLYAKNLNIVTGRNDVQADSLQATPRAADGSEKPQLAIDSSALGGMYAGAIRLVGTEQGVGVKLAGDMAASGGDIRIDASGKLSLAQASSQGDLKIAAQAVELNGKTYAGGSAEIRSAEELVNRQS
- glycan array binding signal (z-score) [1]: 1.4
- glycan array binding signal (z-score) [2]: -0.466
- glycan array binding signal (z-score) [3]: -0.384
- glycan array binding signal (z-score) [4]: -0.148
- glycan array binding signal (z-score) [5]: -0.766
- glycan array binding signal (z-score) [6]: 0.441
- glycan array binding signal (z-score) [7]: 0.186
- glycan array binding signal (z-score) [8]: 0
- glycan array binding signal (z-score) [9]: 0.653
- glycan array binding signal (z-score) [10]: 0.044
- glycan array binding signal (z-score) [11]: 0.261
- glycan array binding signal (z-score) [12]: -0.39
- glycan array binding signal (z-score) [13]: -0.245
- glycan array binding signal (z-score) [14]: -0.275
- glycan array binding signal (z-score) [15]: -0.6
- glycan array binding signal (z-score) [16]: -1.04
- glycan array binding signal (z-score) [17]: -0.543
- glycan array binding signal (z-score) [18]: 0.207
- glycan array binding signal (z-score) [19]: 0.081
- glycan array binding signal (z-score) [20]: 0.61
- glycan array binding signal (z-score) [21]: -0.461
- glycan array binding signal (z-score) [22]: 0.511
- glycan array binding signal (z-score) [23]: 1.07
- glycan array binding signal (z-score) [24]: -0.055
- glycan array binding signal (z-score) [25]: 0.548
- glycan array binding signal (z-score) [26]: 0.386
- glycan array binding signal (z-score) [27]: 0.561
- glycan array binding signal (z-score) [28]: -0.666
- glycan array binding signal (z-score) [29]: 1.8
- glycan array binding signal (z-score) [30]: 0.244
